Measured values published in publication PMC10042735.
These are yes or no findings as the source states them, for the method shown. In cells and extracts the contact can be indirect. These calls come from enrichment with a bait or labelling near it, and not all partners need be listed. Where a sequence is shown, tags or fusion partners need not be part of it. Blank lines part the entries; values can stand above or below the binder they belong to.

Assays:
V5-TurboID-tagged KAT8 [1] = molecular target: T1, V5-TurboID-tagged KAT8 (UniProt Q9H7Z6); assay: proximity labelling; V5-TurboID-KAT8 A375 cells treated with 10 μM 2142-R8 or Mut-R8 and doxycycline for 24 h, IFNγ 6 h, 50 μM biotin 15 min; streptavidin beads, SDS-PAGE; KAT8 with endogenous IRF1
T1 sequence: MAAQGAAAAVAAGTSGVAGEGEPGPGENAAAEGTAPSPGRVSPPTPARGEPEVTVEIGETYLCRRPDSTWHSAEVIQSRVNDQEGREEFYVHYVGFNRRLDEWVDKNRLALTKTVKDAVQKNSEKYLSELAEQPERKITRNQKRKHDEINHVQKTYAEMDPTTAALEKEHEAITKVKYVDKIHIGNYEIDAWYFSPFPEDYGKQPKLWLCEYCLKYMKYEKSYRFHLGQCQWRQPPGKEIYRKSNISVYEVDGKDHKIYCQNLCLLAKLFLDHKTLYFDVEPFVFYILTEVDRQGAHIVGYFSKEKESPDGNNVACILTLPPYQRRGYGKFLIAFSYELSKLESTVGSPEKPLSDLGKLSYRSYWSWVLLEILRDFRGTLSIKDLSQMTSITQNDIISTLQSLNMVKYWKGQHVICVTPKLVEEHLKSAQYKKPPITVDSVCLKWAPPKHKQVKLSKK

[2] = molecular target: T2, BirA* (BirA R118G mutation)-fused KAT8 (UniProt Q9H7Z6); assay: proximity labelling; BirA*-fused KAT8 or IRF1 in A375 cells, with or without 100 U/mL IFN-γ, 50 μM biotin for 24 h; streptavidin beads, blot
T2 sequence: T1 sequence

V5-TurboID-tagged KAT8 [3] = molecular target: T1, V5-TurboID-tagged KAT8; assay: proximity labelling; V5-TurboID-KAT8 in A375 cells: doxycycline 500 ng/ml 24 h, IFNγ 100 U/ml 6 h, 50 μM biotin for 15 min; lysis in RIPA-SDS buffer, streptavidin beads, mass spectrometry
V5-TurboID-tagged KAT8 [4] = molecular target: T1, V5-TurboID-tagged KAT8; assay: proximity labelling; same experiment as a7, read for the peptide added to the cells (10 μM, 24 h) against KAT8 in cells; only the binder purified

- binding (V5-TurboID-tagged KAT8 [1]): binds
- binding [2]: binds
- binding (V5-TurboID-tagged KAT8 [3]): binds
B1: endogenous IRF1 (protein, UniProt P10914 1-325)
chain: MPITRMRMRPWLEMQINSNQIPGLIWINKEEMIFQIPWKHAAKHGWDINKDACLFRSWAIHTGRYKAGEKEPDPKTWKANFRCAMNSLPDIEEVKDQSRNKGSSAVRVYRMLPPLTKNQRKERKSKSSRDAKSKAKRKSCGDSSPDTFSDGLSSSTLPDDHSSYTVPGYMQDLEVEQALTPALSPCAVSSTLPDWHIPVEVVPDSTSDLYNFQVSPMPSTSEATTDEDEEGKLPEDIMKLLEQSEWQPTNVDGKGYLLNEPGVQPTSVYGDFSCKEEPEIDSPGGDIGLSLQRVFTDLKNMDATWLDSLLTPVRLPSIQAIPCAP

- binding (V5-TurboID-tagged KAT8 [4]): binds
Binder: IPGLIWINKEEMIFQIPWKHAARRRRRRRR (peptide, UniProt P10914 21-42) [2142–R8 peptide]
